From the supplement of paper PMC10849652
Some of the results follow.

Amino acid sequences for entries named in this document (tags omitted). A change or cut given only in a name is not applied to a line headed by its entry.
UniProt Q9UJ04: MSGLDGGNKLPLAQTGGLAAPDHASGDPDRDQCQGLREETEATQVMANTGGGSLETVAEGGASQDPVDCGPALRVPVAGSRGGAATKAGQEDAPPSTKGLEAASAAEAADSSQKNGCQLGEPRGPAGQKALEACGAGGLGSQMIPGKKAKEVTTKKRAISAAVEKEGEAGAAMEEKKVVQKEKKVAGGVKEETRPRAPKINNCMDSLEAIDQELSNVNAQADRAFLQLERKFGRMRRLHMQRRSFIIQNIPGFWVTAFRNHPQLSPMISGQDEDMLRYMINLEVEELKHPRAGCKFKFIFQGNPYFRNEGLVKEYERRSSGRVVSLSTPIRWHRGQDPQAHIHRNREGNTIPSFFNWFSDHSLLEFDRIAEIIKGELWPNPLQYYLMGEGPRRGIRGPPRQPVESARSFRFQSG
UniProt Q86VQ3: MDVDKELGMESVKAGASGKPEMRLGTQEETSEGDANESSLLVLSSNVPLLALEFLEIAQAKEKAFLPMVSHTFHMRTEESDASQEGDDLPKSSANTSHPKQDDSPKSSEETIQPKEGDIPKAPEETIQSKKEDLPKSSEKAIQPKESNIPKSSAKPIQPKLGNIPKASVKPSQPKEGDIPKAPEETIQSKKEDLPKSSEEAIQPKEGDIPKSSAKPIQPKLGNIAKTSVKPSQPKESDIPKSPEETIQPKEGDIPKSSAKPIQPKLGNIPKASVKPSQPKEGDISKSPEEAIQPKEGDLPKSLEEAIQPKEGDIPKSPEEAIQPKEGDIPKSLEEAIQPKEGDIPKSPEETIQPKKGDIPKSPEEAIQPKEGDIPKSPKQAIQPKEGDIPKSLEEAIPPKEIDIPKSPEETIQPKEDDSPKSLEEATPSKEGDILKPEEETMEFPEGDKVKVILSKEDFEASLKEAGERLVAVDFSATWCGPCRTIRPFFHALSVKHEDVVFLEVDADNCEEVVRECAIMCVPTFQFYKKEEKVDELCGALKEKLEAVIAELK
UniProt Q96ET8: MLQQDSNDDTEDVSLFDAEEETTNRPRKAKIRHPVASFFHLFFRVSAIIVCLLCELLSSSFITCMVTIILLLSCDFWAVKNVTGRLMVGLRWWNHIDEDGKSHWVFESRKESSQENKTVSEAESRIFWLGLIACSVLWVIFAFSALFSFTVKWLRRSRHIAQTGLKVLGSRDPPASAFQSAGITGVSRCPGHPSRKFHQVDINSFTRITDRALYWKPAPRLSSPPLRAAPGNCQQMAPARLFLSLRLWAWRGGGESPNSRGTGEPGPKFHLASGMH
UniProt A6NNZ2, whole entry, looked up: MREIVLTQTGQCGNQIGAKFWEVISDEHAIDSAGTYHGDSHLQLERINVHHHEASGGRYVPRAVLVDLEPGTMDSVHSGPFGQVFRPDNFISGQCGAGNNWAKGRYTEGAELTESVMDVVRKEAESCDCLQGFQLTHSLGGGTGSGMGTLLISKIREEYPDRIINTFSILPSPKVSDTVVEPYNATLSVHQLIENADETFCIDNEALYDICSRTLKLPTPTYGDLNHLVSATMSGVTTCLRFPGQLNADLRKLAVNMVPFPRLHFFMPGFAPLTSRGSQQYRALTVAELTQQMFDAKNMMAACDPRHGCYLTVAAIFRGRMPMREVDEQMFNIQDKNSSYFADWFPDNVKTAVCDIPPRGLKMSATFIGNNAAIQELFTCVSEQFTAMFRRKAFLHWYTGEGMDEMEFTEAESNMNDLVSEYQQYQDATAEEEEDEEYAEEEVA
UniProt P29597: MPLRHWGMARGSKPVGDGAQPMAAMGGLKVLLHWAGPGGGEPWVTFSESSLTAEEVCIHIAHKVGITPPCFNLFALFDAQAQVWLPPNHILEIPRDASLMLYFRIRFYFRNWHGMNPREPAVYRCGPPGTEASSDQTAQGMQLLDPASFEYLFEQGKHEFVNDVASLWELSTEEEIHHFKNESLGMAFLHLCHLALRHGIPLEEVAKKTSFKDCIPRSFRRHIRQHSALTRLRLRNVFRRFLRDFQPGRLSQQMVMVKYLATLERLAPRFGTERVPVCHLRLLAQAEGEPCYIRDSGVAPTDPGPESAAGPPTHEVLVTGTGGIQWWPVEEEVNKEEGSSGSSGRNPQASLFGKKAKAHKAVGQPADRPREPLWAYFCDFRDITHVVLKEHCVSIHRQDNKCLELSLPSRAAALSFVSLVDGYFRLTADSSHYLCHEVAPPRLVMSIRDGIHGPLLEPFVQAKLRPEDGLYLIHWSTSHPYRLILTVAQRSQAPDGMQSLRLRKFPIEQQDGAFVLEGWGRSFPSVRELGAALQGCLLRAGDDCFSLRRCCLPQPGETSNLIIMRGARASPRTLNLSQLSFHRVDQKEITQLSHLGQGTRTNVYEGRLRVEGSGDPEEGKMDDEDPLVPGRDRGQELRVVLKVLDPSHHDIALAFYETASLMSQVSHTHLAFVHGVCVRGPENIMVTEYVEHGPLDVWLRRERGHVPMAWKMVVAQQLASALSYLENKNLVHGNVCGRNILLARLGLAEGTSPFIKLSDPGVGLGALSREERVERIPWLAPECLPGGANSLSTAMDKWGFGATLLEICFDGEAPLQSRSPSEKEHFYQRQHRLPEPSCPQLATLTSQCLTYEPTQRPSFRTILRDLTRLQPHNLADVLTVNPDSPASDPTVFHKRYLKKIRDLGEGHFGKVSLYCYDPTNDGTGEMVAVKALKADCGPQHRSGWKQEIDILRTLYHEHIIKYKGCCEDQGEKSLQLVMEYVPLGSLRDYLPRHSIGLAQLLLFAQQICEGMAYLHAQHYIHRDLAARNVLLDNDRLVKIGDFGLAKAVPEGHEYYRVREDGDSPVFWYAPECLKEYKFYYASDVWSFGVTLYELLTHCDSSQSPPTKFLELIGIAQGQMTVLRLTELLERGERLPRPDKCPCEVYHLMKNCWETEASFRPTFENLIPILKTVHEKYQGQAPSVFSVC
UniProt Q16881, whole entry, looked up: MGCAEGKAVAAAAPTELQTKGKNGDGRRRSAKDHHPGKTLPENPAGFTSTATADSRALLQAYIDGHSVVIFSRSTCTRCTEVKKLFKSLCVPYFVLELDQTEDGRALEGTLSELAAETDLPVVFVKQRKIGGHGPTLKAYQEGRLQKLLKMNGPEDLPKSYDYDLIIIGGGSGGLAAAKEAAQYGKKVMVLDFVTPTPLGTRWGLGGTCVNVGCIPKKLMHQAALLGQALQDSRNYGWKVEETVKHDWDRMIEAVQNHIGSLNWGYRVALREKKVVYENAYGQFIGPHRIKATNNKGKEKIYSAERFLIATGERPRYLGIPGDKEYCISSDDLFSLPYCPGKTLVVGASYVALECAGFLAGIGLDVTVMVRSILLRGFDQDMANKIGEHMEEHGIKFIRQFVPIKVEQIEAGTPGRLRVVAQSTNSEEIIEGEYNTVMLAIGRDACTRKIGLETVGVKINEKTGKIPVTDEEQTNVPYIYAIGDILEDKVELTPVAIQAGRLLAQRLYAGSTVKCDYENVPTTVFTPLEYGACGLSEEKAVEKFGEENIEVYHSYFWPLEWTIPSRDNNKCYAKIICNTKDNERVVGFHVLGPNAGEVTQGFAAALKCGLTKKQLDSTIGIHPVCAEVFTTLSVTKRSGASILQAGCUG
UniProt Q06418: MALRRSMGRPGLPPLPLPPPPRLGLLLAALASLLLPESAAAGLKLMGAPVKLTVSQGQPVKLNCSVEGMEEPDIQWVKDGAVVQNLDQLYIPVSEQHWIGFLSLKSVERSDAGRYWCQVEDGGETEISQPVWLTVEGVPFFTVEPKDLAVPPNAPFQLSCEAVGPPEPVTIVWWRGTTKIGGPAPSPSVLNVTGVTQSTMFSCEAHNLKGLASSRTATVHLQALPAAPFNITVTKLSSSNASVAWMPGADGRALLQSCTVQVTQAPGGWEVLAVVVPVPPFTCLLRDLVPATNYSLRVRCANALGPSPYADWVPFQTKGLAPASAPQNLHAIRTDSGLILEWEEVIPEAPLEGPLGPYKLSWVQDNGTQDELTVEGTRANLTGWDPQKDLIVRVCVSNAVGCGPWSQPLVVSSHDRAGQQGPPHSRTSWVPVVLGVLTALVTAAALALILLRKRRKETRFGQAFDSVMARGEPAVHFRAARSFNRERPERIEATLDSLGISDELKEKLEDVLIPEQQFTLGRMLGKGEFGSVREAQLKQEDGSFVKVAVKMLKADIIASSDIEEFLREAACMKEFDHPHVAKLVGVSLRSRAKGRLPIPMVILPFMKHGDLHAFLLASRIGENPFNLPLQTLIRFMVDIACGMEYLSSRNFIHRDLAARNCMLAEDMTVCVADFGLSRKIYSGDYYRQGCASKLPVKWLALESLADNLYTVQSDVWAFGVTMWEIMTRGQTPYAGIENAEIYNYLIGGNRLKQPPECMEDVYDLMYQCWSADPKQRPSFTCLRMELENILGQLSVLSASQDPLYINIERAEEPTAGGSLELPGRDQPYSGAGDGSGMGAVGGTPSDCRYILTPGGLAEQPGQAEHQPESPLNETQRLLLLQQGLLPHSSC
UniProt Q5VYS8: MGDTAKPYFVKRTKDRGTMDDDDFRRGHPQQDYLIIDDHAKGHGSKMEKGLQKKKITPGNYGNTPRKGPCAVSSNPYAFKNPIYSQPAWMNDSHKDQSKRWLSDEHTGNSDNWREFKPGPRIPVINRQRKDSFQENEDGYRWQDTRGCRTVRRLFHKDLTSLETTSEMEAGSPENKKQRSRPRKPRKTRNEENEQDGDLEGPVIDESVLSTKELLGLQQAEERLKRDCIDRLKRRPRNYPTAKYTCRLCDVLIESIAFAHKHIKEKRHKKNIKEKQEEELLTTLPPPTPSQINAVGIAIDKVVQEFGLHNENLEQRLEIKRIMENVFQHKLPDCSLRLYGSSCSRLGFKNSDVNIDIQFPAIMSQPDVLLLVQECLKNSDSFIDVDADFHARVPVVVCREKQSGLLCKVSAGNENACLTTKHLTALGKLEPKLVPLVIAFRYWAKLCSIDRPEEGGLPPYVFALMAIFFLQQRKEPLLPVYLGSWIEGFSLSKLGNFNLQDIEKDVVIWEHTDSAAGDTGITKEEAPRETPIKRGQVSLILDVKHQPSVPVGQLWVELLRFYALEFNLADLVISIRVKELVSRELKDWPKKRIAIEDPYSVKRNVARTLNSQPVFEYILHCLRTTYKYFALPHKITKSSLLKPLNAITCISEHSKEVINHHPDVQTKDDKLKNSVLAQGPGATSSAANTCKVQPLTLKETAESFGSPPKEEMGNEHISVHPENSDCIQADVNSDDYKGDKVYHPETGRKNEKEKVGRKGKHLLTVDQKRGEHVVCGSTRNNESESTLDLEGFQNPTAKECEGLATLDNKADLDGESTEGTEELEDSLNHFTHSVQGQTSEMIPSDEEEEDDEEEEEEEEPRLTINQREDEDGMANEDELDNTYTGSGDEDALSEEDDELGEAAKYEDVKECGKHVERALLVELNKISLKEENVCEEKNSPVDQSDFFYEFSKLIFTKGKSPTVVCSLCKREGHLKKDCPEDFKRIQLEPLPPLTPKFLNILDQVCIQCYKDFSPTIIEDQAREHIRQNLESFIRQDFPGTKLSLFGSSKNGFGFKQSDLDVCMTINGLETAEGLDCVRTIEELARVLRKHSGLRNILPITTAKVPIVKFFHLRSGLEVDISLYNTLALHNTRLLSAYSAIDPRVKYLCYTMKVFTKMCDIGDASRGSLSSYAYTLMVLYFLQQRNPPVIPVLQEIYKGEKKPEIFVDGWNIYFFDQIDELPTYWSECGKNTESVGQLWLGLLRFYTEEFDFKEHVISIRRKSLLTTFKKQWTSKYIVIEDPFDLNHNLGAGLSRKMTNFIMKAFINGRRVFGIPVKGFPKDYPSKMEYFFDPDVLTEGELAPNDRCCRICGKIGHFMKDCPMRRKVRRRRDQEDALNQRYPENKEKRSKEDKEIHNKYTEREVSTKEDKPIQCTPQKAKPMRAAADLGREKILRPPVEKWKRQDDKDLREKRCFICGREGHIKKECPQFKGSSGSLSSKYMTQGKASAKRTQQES
UBE2L5, A0A1B0GUS4, UniProt A0A1B0GUS4, whole entry, looked up: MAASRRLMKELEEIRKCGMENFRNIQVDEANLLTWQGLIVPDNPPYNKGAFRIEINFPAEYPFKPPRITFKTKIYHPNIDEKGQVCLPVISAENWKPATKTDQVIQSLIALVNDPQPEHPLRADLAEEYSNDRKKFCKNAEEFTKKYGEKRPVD
UniProt Q6PID6, whole entry, looked up: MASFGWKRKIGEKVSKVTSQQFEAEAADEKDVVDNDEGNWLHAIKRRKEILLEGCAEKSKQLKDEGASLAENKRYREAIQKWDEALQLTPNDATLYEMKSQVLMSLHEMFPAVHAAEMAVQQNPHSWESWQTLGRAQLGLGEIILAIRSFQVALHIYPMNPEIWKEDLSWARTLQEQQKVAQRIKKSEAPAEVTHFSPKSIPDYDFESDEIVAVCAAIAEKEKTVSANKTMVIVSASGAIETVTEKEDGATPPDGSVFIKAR
UniProt O14817: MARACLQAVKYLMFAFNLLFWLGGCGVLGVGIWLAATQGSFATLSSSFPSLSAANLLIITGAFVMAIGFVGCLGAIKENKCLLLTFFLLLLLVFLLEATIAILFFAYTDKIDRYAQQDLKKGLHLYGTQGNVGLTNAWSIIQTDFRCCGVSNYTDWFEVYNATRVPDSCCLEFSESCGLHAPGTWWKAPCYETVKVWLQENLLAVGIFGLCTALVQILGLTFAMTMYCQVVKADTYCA

Legend:
Assay in all cases: log2 fold change, soluble protein after heating vs DMSO (PISA); higher = thermal stabilisation; K562 cells, 10 uM, 30 min; active = over 0.2 and 3.5 SD of the protein, either way, in both replicates (recomputed)
defactinib = compound: CNC(=O)c1ccc(Nc2ncc(C(F)(F)F)c(NCc3nccnc3N(C)S(C)(=O)=O)n2)cc1 [defactinib]
Outline: (§1)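 Soluble protein was quantified by TMTpro 16plex LC-MS/MS after channel sums were equalised. It was obtained as the supernatant after 21,000xg for 90 min from pooled aliquots of K562 cells (2×10^6 cells/mL, 10 μM compound, 30 min) heated for 3 min across 48°C-58°C and extracted in PBS with 0.5% NP-40 at 4°C. Thermal stability values are relative to control samples and come from duplicates. They are given as log2 fold changes.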

[1] = compound: COC(=O)[C@H](CCSC)NC(=O)C1=C(C=C(C=C1)NC[C@H](CS)N)C2=CC=CC=C2
Outline: as §1

sotrastaurin = compound: CN1CCN(c2nc(C3=C(c4c[nH]c5ccccc45)C(=O)NC3=O)c3ccccc3n2)CC1 [sotrastaurin]
Outline: as §1

alvocidib = compound: CN1CC[C@H](c2c(O)cc(O)c3c(=O)cc(-c4ccccc4Cl)oc23)[C@H](O)C1 [alvocidib]
Outline: as §1

Tubastatin A = compound: CN1CCc2c(c3ccccc3n2Cc2ccc(C(=O)NO)cc2)C1 [Tubastatin A]
Outline: as §1

[2] = compound: CNC(=O)C1=CC=CC=C1NC2=NC(=NC=C2Cl)NC3=C(C=C(C=C3)N4CCOCC4)OC
Outline: as §1

rucaparib = compound: CNCc1ccc(-c2[nH]c3cc(F)cc4c3c2CCNC4=O)cc1 [rucaparib]
Outline: as §1

encorafenib = compound: COC(=O)N[C@@H](C)CNc1nccc(-c2cn(C(C)C)nc2-c2cc(Cl)cc(NS(C)(=O)=O)c2F)n1 [encorafenib]
Outline: as §1

saracatinib = compound: CN1CCN(CCOc2cc(OC3CCOCC3)c3c(Nc4c(Cl)ccc5c4OCO5)ncnc3c2)CC1 [saracatinib]
Outline: as §1

[3] = compound: CNc1nc(-c2ccc3c(N)n[nH]c3c2)cc(N2C[C@@H](C(=O)NC3CCCCC3)CC[C@H]2C)n1
Outline: as §1

Measured: log2 fold change

TSPYL4 (UniProt Q9UJ04)
inactive: defactinib -0.12 | [1] -0.01

TTC14 (UniProt Q96N46)
inactive: sotrastaurin -0.114 | alvocidib 0.038 | Tubastatin A 0.052 | [2] -0.232 | rucaparib -0.035 | encorafenib 0.051

TXNDC2 (UniProt Q86VQ3)
inactive: saracatinib -0.041 | sotrastaurin 0.048 | defactinib -0.013 | rucaparib -0.033 | [3] 0.042 | encorafenib 0.097 | [1] 0.079

TUBB8 (UniProt Q3ZCM7)
inactive: saracatinib 0.003 | sotrastaurin 0.036 | [2] 0.149 | [3] 0.019

TTC5 (UniProt Q8N0Z6)
inactive: saracatinib -0.235 | sotrastaurin 0 | rucaparib 0.158 | [3] 0.177 | encorafenib 0.017

UBA52 (UniProt P62987)
inactive: sotrastaurin -0.029 | Tubastatin A -0.004 | [2] -0.008 | defactinib 0.221 | rucaparib 0.421 | encorafenib 0.152 | [1] 0.08

TTC17 isoform 2 (UniProt Q96AE7)
inactive: [2] -0.422

UBAP2L (UniProt F8W726)
inactive: Tubastatin A -0.039 | [2] -0.05 | rucaparib -0.006 | encorafenib -0.021

TSPAN13 (UniProt O95857)
inactive: saracatinib -0.055 | sotrastaurin 0.044 | Tubastatin A -0.11 | [2] 0.054 | defactinib -0.104 | [3] -0.029 | [1] -0.291

TVP23C (UniProt Q96ET8)
inactive: saracatinib 0.025 | Tubastatin A 0 | [2] 0.042 | defactinib 0.039 | rucaparib -0.205 | [3] 0.015 | encorafenib 0.129 | [1] 0.067

TUBB8B (UniProt A6NNZ2)
inactive: sotrastaurin 0.029 | alvocidib 0.012 | Tubastatin A 0.065 | [2] -0.078 | defactinib -0.014 | rucaparib -0.062 | encorafenib 0.064 | [1] -0.001

TTC26
inactive: Tubastatin A -0.033 | defactinib 0.265 | [1] 0.144

TYK2 (UniProt P29597)
inactive: saracatinib -0.285 | sotrastaurin 0.122 | [3] 0.222

TUBA8 (UniProt Q9NY65)
inactive: sotrastaurin 0 | alvocidib 0.652 | Tubastatin A 0.253 | [2] -0.348 | defactinib 0.517 | rucaparib 0.143 | encorafenib 0.434 | [1] 0.039

TUSC2 (UniProt O75896)
inactive: sotrastaurin 0.003 | [2] -0.136

U2AF1L5 (UniProt P0DN76)
inactive: saracatinib -0.013 | Tubastatin A 0.072 | [2] 0.084 | defactinib -0.409 | rucaparib 0.236 | [3] -0.023 | encorafenib 0.23 | [1] 0.107

UBE3B (UniProt Q7Z3V4)
inactive: saracatinib -0.028 | sotrastaurin 0.005 | Tubastatin A 0.128 | [3] -0.032

UBE2L6 (UniProt O14933)
inactive: [2] 0.01

TXNRD1 isoform 7 (UniProt Q16881)
inactive: saracatinib -0.202 | sotrastaurin 0.019 | [2] -0.364 | defactinib -0.194 | rucaparib 0.263 | [3] 0.065 | encorafenib -0.085 | [1] 0.062

TTK (UniProt P33981)
inactive: defactinib 0.201 | [1] -0.021

TUBA4A (UniProt C9JJQ8)
inactive: saracatinib -0.148 | sotrastaurin -0.084 | Tubastatin A 0.147 | defactinib -0.215 | rucaparib 0.186 | [3] 0.131 | encorafenib 0.078 | [1] -0.055

3 entries picked at random from those above:
TXNRD1 isoform 7 (UniProt Q16881)
inactive: saracatinib -0.202 | sotrastaurin 0.019 | [2] -0.364 | defactinib -0.194 | rucaparib 0.263 | [3] 0.065 | encorafenib -0.085 | [1] 0.062

UBE3B (UniProt Q7Z3V4)
inactive: saracatinib -0.028 | sotrastaurin 0.005 | Tubastatin A 0.128 | [3] -0.032

TTK (UniProt P33981)
inactive: defactinib 0.201 | [1] -0.021

Next entries

TUBD1 (UniProt Q9UJT1)
inactive: sotrastaurin 0.017

TTC37 (UniProt Q6PGP7)
inactive: defactinib -0.08 | rucaparib 0.116 | encorafenib -0.132 | [1] 0.024

TYRO3 (UniProt Q06418)
inactive: sotrastaurin 0.007

TSPAN17 isoform 4 (UniProt Q96FV3)
inactive: sotrastaurin 0.125 | [2] -0.176

TUT7 (UniProt Q5VYS8)
inactive: sotrastaurin 0.044 | alvocidib 0.15 | Tubastatin A 0.071 | rucaparib 0.445 | encorafenib 0.149

TSG101 (UniProt Q99816)
inactive: saracatinib -0.008 | sotrastaurin -0.047 | Tubastatin A 0 | [2] 0.011 | defactinib -0.12 | rucaparib -0.006 | [3] -0.044 | encorafenib -0.007 | [1] -0.032

TUBGCP5 (UniProt Q96RT8)
inactive: alvocidib 0.004 | Tubastatin A -0.076 | [2] 0.118 | rucaparib 0.029 | encorafenib -0.054

UBE2L5, A0A1B0GUS4
inactive: alvocidib 0.126 | Tubastatin A 0.076 | [2] -0.019 | defactinib -0.085 | rucaparib 0.088 | encorafenib 0.068 | [1] -0.135

TTC33 (UniProt Q6PID6)
inactive: saracatinib -0.103 | sotrastaurin 0.009 | [2] 0.012 | defactinib 0.013 | rucaparib -0.008 | [3] -0.152 | encorafenib -0.014 | [1] 0.054

TTC21B (UniProt Q7Z4L5)
inactive: saracatinib 0.004 | Tubastatin A 0.121 | [3] -0.074

TSPYL1 (UniProt Q9H0U9)
inactive: alvocidib -0.078 | [2] 0.122

TSPAN4 (UniProt O14817)
inactive: Tubastatin A -0.047 | [2] -0.207 | rucaparib -0.234 | encorafenib 0.081

TXNRD1 (UniProt Q16881)
inactive: saracatinib -0.012 | sotrastaurin 0.058 | Tubastatin A -0.001 | [2] 0.022 | defactinib -0.015 | rucaparib -0.113 | [3] 0.032 | encorafenib -0.033 | [1] -0.001

TYW5 (UniProt A2RUC4)
inactive: Tubastatin A -0.219 | [2] -0.201 | defactinib 0.073 | [1] 0.194

UBE2D1 (UniProt P51668)
inactive: saracatinib 0.03 | sotrastaurin 0.056 | Tubastatin A -0.058 | [2] -0.035 | defactinib -0.016 | rucaparib 0.006 | [3] -0.105 | encorafenib 0.01 | [1] -0.047

UBE2E1 (UniProt P51965)
inactive: saracatinib 0.161 | sotrastaurin -0.13 | Tubastatin A 0.03 | [2] 0.261 | defactinib 0.11 | [3] -0.05 | [1] -0.233

TTR (UniProt P02766)
inactive: [2] 0.118

TSKU (UniProt Q8WUA8)
inactive: alvocidib 0.024 | Tubastatin A 0.187 | [2] 0.083 | defactinib -0.058 | [1] 0.039

TWNK (UniProt Q96RR1)
inactive: Tubastatin A 0.164 | [2] 0.031 | defactinib 0.184 | [1] -0.001
